# Source: article PMC5316984
# Chains of the proteins cited; added tags and fusions are not shown. Lines headed by an entry give the natural chain unless they say otherwise; changes in a name come on top.
# UniProt Q15208: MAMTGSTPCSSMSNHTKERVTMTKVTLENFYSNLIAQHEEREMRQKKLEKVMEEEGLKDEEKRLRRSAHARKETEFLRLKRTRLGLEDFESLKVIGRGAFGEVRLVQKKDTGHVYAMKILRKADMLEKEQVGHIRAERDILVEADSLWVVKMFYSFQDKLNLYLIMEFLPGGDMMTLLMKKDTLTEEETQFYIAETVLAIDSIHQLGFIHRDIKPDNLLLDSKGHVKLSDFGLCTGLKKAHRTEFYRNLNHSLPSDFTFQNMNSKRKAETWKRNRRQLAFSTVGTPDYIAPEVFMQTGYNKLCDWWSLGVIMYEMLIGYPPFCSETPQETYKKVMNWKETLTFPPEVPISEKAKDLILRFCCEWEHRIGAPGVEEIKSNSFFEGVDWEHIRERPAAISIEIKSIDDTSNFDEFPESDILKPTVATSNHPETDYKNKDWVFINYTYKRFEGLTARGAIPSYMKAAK
# UniProt O14508: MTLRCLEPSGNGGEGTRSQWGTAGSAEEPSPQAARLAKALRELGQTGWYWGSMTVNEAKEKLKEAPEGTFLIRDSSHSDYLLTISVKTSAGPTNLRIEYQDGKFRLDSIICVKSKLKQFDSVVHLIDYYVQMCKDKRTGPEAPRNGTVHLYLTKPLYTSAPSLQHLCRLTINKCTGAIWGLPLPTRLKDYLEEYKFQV
# No constants are given. Whether binding was seen depends on the method and setting. In cells and extracts the contact can be indirect. Some entries that bind do so weakly or less than the wild type.
# Columns and labels:
# Myc-tagged NDR1 = Myc-tagged NDR1 (UniProt Q15208); test: co-IP; FLAG-SOCS2-ΔSB and Myc-NDR1 co-expressed; lysate precipitated with anti-Myc (9E10) antibody, immunoblot; IP buffer 50 mM HEPES pH 7.2, 250 mM NaCl, 10% glycerol, 1% Nonidet P-40, 1.0 mM EDTA
# [1] = molecular target: SOCS2 (endogenous) (human (endogenous in HEK293T) by the legend; mouse (endogenous in MEFs) by the text) (UniProt O14508); test: co-IP; endogenous proteins; lysate (2 mg) precipitated with anti-SOCS2 antibody or anti-IgG, immunoblot; IP buffer 50 mM HEPES pH 7.2, 250 mM NaCl, 10% glycerol, 1% Nonidet P-40, 1.0 mM EDTA
# [2] = molecular target: FLAG-SOCS2-ΔSB (SOCS2 SOCS-box deletion mutant, amino acids 1-145) (human) (UniProt O14508); test: co-IP; FLAG-SOCS2-ΔSB and Myc-NDR1 co-expressed; lysate precipitated with anti-FLAG M2 antibody, immunoblot; IP buffer 50 mM HEPES pH 7.2, 250 mM NaCl, 10% glycerol, 1% Nonidet P-40, 1.0 mM EDTA
substance,measurement,setting,value
"FLAG-SOCS2-ΔSB (SOCS2 SOCS-box deletion mutant, amino acids 1-145) (from UniProt O14508 1-145) (domain or fragment)",binding,Myc-tagged NDR1,binds
NDR1 (endogenous) (from UniProt Q15208 1-465) (enzyme),binding,[1],binds
Myc-tagged NDR1 (from UniProt Q15208 1-465) (enzyme),binding,[2],binds
